Calls as published in the ROBIN set (doi:10.1002/anie.202211358).

Targets (5′ to 3′):
TPP: TPP riboswitch RNA three-way junction, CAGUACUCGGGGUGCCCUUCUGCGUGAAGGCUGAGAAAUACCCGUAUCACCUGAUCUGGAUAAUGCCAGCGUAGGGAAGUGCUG. About 160 hits among about 24,000 compounds.
PreQ1: PreQ1 riboswitch RNA pseudoknot, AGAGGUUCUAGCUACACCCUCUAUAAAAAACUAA. From B. subtilis. About 170 hits among about 24,000 compounds.
SAM-II: SAM-II riboswitch RNA pseudoknot, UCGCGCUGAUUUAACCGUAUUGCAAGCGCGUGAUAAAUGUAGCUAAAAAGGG. About 200 hits among about 21,000 compounds.

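Compounds were printed on reactive glass slides in duplicate spots, a dye-labelled oligonucleotide was laid over them, and the fluorescence left after washing was read. The data file lists only calls. An earlier report of the laboratory on the PreQ1, TPP and SAM-II riboswitches (doi:10.1038/s41467-019-09493-3) used 1 µM RNA for 2 h and required a mean Z-score above 3 (spot signal-to-noise against the whole library), a score well above that on a control array, and duplicate spots agreeing (coefficient of variation under 100); it then also set aside compounds that hit other targets, which this list keeps. The cut-offs behind this list may differ. The calls come from the array alone, and fixing a compound to the slide can hide its binding.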 A compound is marked Y if it was called a hit and N if it was screened but was not. This is an unselected part of the compounds tested. A target missing from an entry has no call listed here. A dash means that no call is listed here.

| SMILES | TPP | PreQ1 | SAM-II |
|---|---|---|---|
| `CCc1n[nH]c2c1C(c1ccc(C#CCCO)cc1)CC(=O)N2` (centres undefined) | N | N | N |
| `Cc1ccc(Cl)cc1NC(=O)c1cc2ccccc2cc1O` | N | N | N |
| `CCCc1n[nH]c2c1C(c1cc(Br)ccc1F)C(C#N)=C(N)O2` (centres undefined) | N | N | N |
| `CCOC(=O)c1cccc(Nc2c3c(nc4ccccc24)CCC3)c1` | N | N | N |
| `CC(=O)N1CCN(Cc2nnc(-c3ccco3)o2)CC(O)C1` (centres undefined) | N | N | N |
| `CCOC(=O)c1c(O)cc(C)[nH]c1=O` | N | N | N |
| `O=c1[nH]c(=O)n([C@H]2C[C@H](O)[C@@H](CO)O2)cc1Br` | N | N | N |
| `CN[C@@H]1Cc2cccc3[nH]c(=O)n(c23)C1` | N | N | N |
| `NS(=O)(=O)c1cc2c(cc1Cl)NC(Cc1ccccc1)NS2(=O)=O` (centres undefined) | N | N | N |
| `CCCOc1cccc(C2c3c(-c4cc(C)ccc4O)n[nH]c3C(=O)N2CCO)c1` (centres undefined) | N | N | - |
| `CCc1n(CC(O)COc2ccc(F)cc2)c2ccccc2[n+]1CC` (centres undefined) | N | N | N |
| `OCCn1c(-c2ccccc2)cn2c3ccccc3nc12` | N | N | N |
| `COc1ccc2nc3cc(Cl)ccc3c(C#N)c2c1` | N | N | Y |
| `CCCCOC(=O)C1=C(N)OC2=C(C(=O)CC(C)(C)C2)C12C(=O)N(C)c1ccccc12` (centres undefined) | N | N | N |
| `C1COCCN1.O=C(O)C(C=C(Cl)Cl)N1CCOCC1` (centres undefined) | N | N | N |
| `COc1ccc(OC2CCN(CC3CCNC3)CC2)cc1` (centres undefined) | N | N | N |
| `CCN(CC)C(=O)[C@@H]1C[C@H](N)CN1C(=O)Cn1c(C)c(C#N)c2ccccc21` | N | N | N |
| `CCCN1CC2(CCN(C)CC2)CC1C(=O)NCCNc1cccnc1` (centres undefined) | N | N | N |
| `Cc1ccc(S(=O)(=O)Nc2cc(Cl)ccc2C(=O)Nc2nc(-c3ccccc3)cs2)cc1` | N | N | N |
| `O=c1[nH]nc(CCCO)n1Cc1ccco1` | N | N | N |
| `Cc1cc(N2CCN(C(=O)[C@H]3CC[C@@H](N)C3)CC2)n2ncnc2n1` | N | N | N |
| `CN(Cc1c[nH]nc1-c1ccccc1)C(=O)c1cn(CC2CCCNC2)nn1` (centres undefined) | N | N | N |
| `OC[C@@H](Nc1nc(-c2ccncc2)nc2c1CNC2)c1ccccc1` | N | N | N |
| `CCC(=C(CC)c1ccc(O)cc1)c1ccc(O)cc1` | N | N | N |
| `Cn1c(=O)n(C)c2cc(CNCCC3=CCCCC3)ccc21` | N | N | - |
| `CN(Cc1cc(-c2ccccc2)n[nH]1)CC1(O)CCNC1` (centres undefined) | N | N | N |
| `Cc1ccc(S(=O)(=O)N(CC(N)=O)CC(O)Cn2c3ccccc3c3ccccc32)cc1` (centres undefined) | N | N | N |
| `O=C1C=C(NCCCn2ccnc2)C2(CCCCC2)O1` | N | N | N |
| `CN(C)CCCn1c(=O)c2c(ncn2CC(O)CO)n(C)c1=O` (centres undefined) | N | N | - |
| `CN(C)CCCN1c2ccc3ccccc3c2Sc2cccc(Cl)c21` | N | N | N |
| `COc1ccc(C=Cc2nc(CCNc3ccccc3)no2)cc1OC` | N | N | N |
| `c1ccc(CNc2ccc3c(c2)ncn3C2CCCCC2)nc1` | N | N | N |
| `Cc1nnc(SCC(=O)N2C[C@@H]3c4ccccc4OC[C@]3(CO)C2)o1` | N | N | N |
| `Nc1ccn([C@@H]2CS[C@H](CO)O2)c(=O)n1` | N | N | N |
| `CN(C)c1nc(-c2cccnc2)nc2c1CCN(C(=O)C1(N)CCC1)C2` | N | N | N |
| `COc1cc(OC)c(C2C(C#N)=C(N)OC3=C2C(=O)CC(C)(C)C3)c(OC)c1` (centres undefined) | N | N | N |
| `O=C(O)c1ccc(NCc2cccc(Br)c2)cc1` | N | N | N |
| `Cc1ccc2[nH]c3c(c2c1)CCCC3NCc1ccc(Cl)cc1` (centres undefined) | N | N | N |
| `Cc1ccnc(NCCNc2ncnc3c2CCNCC3)c1` | N | N | N |
| `CN1CCN(C[C@@H]2CN(C(=O)CCc3cccs3)C[C@@H]2CO)CC1` | N | N | N |
| `Oc1cc(CNCC2CCN(c3ccccc3)C2)nc2c(F)cccc12` (centres undefined) | N | N | N |
| `CCOC(=O)c1ccc(Nc2cc(-n3nc(C)cc3-c3ccccc3)ncn2)cc1` | N | N | N |
| `Nc1nccc(-c2ccc3noc(-c4ccc(Cl)cc4)c3c2)n1` | N | N | N |
| `O=C(C[n+]1cccc(CO)c1)Nc1nccs1` | N | N | N |
| `COc1ccc(C2C(C#N)=C(N)OC3=C2CCCC3)cc1` (centres undefined) | N | N | N |
| `O=C(OCc1ccccc1)c1nc2ccccc2nc1NCc1ccccc1` | N | N | N |
| `CC(C)N1CCC(N[C@@H]2CC[C@@H]2NC(=O)CCc2nc3ccccc3[nH]2)CC1` | N | N | N |
| `CC(C)CCOc1cccc(CCNC(=O)C2CC3(CCNCC3)CN2)c1` (centres undefined) | Y | Y | N |
| `Cc1noc(-c2cccnc2NCc2ccco2)n1` | N | N | - |
| `COc1ccc(-n2ccnc2-c2cn(C3CCNCC3)nn2)c(C)c1` | N | N | N |
| `CNc1cc(C)nc2c(-c3ccc(Cl)cc3)cnn12` | N | N | - |
| `Cc1cc(C)cc(NC(=O)Cn2nnc(C(=O)NCc3ccc(F)cc3)c2N)c1` | N | N | N |
| `Cc1ccsc1[C@@H]1CCN(C(=O)c2ccc(-n3cnnc3)cc2)C[C@H]1O` | N | N | N |
| `Nc1ccn([C@@H]2O[C@H](CO)[C@@H](O)[C@H]2O)c(=O)n1` | N | N | N |
| `CCc1nccn1CC(=O)N1CCC2(CC1)[C@H](O)C[C@@H]2O` | N | N | N |
| `CSCC[C@@H](CO)NC(=O)c1cc(C)nc2cc(F)ccc12` | N | N | N |
| `Cc1ccc(CNc2nc3ccccc3c3nnc(C)n23)cc1` | N | N | - |
| `Cc1nc(Nc2ccc(N3CCOCC3)cc2)cc(-c2ccccc2)n1` | N | N | - |
| `Cc1cc(N2CCN(S(=O)(=O)c3ccccc3)CC2)nc(NC2CCCCC2)n1` | N | N | - |
| `Cc1ccc2c(c1)c(CNC(=O)Cn1nnnc1N)nn2C` | N | N | N |
| `Nc1cc(C(=O)O)c(Cl)cc1Cl` | N | N | N |
| `CSCCc1nc([C@@H](N)[C@@H](C)O)n(CC(=O)O)n1` | N | N | N |

The last 5 entries again:

* Cc1nc(Nc2ccc(N3CCOCC3)cc2)cc(-c2ccccc2)n1 | TPP: N; PreQ1: N
* Cc1cc(N2CCN(S(=O)(=O)c3ccccc3)CC2)nc(NC2CCCCC2)n1 | TPP: N; PreQ1: N
* Cc1ccc2c(c1)c(CNC(=O)Cn1nnnc1N)nn2C | TPP: N; PreQ1: N; SAM-II: N
* Nc1cc(C(=O)O)c(Cl)cc1Cl | TPP: N; PreQ1: N; SAM-II: N
* CSCCc1nc([C@@H](N)[C@@H](C)O)n(CC(=O)O)n1 | TPP: N; PreQ1: N; SAM-II: N